System: MCF-7 cell line
Assay: MTT cell viability assay, MCF-7
Assay type: cell-based
Conditions: Homo sapiens, MCF7, viability of MCF-7 cell line
Experimental: MCF-7 cells were purchased from Procell Life Science and Technology Co., Ltd., Wuhan, China, and cultured in MEM or Leibovitz’s L-15 medium containing 2% FBS. MCF-7 cells were maintained in a 5% CO2-humidified atmosphere at 37 °C. KCL22, LAMA84, and K562 cells were obtained from the American Type Culture Collection (Manassas, VA, USA). The KBM5 cell line was previously provided by Dr. Bharat Aggarwal (University of Texas M.D. Anderson Cancer Center, Houston, TX, USA). KBM5 cells were cultured in IMDM medium with 10% inactivated FBS and 1% penicillin-streptomycin. KCL22, LAMA84, and K562 cells were cultured in RPMI with 10% FBS and 1% penicillin-streptomycin antibiotics and maintained at 37 °C in a 5% CO2 chamber.
Cells (1 × 10^4 cells/well) were seeded on a 96-well plate and treated with 4c (0, 5, 10, 15, 30, 50 µM) for 24 h. After 24 h of treatment, 30 µL of MTT solution (2 mg/mL) for 2 h, followed by MTT lysis overnight. Cell viability was analyzed by measuring the absorbance of lysed MTT crystals using VARIOSKAN LUX (Thermo Fisher Scientific Inc., Waltham, MA, USA) at 570 nm.

## CC/C(=C(\c1ccccc1)c1ccc(OCCN(C)C)cc1)c1ccccc1 [Tamoxifen, reference compound]
  IC50: 1450 ± 160 nM

— article PMC10296415, “Methyl-Thiol-Bridged Oxadiazole and Triazole Heterocycles as Inhibitors of NF-κB in Chronic Myelogenous Leukemia Cells” (Biomedicines, 2023)
